This is one part of the list.
Experiments:
Assay in all cases: log2 fold change, soluble protein after heating vs DMSO (PISA); higher = thermal stabilisation; K562 lysate, 10 uM; active = over 0.2 and 3.5 SD of the protein, either way, in both replicates (recomputed)
lapatinib = compound: CS(=O)(=O)CCNCc1ccc(-c2ccc3ncnc(Nc4ccc(OCc5cccc(F)c5)c(Cl)c4)c3c2)o1 [lapatinib]
In short: (§1)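 To prepare the extract, K562 pellets were dounce-homogenised in PBS pH 7.4 with 1 mM MgCl2, giving crude material at 1 mg/mL protein. This was treated with 10 μM compound for 30 min, then heated in aliquots for 3 min over 48°C-58°C before pooling and addition of NP-40 to 0.5% at 4°C. Centrifugation at 21,000xg for 90 min left soluble protein in the supernatant, which TMTpro 16plex LC-MS/MS quantified with equalised channel sums. Results are log-two fold changes in thermal stability compared with solvent controls, from duplicates.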

Amino acid sequences for entries named in this document (tags omitted). A change or cut given only in a name is not applied to a line headed by its entry.
UniProt Q9NYF3: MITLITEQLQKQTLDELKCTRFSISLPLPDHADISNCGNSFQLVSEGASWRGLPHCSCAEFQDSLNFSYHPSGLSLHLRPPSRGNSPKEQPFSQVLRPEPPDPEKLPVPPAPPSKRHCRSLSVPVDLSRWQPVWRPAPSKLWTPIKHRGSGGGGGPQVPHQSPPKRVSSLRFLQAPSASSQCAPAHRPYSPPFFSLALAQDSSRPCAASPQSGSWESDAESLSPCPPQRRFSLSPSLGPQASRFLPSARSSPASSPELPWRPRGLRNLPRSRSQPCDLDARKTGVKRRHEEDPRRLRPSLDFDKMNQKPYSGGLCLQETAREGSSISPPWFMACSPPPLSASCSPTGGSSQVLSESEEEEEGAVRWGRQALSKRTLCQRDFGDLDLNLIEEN
UniProt P10768: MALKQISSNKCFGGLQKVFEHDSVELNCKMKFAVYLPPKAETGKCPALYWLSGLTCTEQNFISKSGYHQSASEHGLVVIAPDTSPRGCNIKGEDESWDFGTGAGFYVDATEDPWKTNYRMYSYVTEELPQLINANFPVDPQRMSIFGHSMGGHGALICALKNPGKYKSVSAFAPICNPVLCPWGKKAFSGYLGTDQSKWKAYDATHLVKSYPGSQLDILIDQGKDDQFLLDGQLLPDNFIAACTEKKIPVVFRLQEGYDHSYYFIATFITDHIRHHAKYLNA
UniProt Q9UBQ6: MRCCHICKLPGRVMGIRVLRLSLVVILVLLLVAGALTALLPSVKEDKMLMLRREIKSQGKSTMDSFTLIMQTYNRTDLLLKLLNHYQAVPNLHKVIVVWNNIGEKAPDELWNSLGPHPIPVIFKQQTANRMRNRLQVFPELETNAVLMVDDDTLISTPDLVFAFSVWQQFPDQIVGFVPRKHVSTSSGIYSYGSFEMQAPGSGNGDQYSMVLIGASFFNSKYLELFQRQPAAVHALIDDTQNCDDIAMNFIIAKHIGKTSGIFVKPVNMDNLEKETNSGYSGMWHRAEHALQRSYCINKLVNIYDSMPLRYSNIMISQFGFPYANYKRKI
UniProt Q9NQT4, whole entry, looked up: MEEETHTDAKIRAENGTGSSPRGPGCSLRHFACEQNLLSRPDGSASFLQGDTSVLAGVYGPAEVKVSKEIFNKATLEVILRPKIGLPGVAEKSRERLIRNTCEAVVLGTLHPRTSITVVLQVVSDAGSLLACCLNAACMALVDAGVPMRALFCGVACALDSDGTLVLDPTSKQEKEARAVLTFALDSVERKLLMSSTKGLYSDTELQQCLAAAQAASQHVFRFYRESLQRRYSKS
UniProt Q5JUQ0: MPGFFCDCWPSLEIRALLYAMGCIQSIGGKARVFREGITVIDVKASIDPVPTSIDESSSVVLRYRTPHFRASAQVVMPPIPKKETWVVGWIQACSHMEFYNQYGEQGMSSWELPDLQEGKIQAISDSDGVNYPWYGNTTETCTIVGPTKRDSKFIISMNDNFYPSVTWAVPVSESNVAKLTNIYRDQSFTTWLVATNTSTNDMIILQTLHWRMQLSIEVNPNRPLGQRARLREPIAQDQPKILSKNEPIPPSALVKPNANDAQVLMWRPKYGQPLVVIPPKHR
UniProt O60645: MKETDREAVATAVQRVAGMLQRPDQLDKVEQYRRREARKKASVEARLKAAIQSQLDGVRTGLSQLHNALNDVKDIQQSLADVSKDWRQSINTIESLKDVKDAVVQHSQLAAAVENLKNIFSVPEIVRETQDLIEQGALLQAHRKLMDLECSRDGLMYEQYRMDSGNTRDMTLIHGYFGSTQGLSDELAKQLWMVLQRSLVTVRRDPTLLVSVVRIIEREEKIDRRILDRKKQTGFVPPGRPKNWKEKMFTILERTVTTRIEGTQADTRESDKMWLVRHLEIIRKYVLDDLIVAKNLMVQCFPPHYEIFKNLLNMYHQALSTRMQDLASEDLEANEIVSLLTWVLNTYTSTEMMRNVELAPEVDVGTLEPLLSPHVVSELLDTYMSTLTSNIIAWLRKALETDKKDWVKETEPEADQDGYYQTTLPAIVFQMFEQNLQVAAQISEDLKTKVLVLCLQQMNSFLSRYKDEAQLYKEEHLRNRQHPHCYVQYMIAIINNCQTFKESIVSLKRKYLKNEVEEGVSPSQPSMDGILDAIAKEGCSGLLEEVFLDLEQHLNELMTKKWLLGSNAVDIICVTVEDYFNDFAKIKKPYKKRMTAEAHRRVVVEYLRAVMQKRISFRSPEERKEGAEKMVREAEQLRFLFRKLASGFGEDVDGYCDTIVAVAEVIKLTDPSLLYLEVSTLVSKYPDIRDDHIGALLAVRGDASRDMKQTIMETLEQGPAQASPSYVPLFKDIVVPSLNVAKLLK
UniProt Q92520: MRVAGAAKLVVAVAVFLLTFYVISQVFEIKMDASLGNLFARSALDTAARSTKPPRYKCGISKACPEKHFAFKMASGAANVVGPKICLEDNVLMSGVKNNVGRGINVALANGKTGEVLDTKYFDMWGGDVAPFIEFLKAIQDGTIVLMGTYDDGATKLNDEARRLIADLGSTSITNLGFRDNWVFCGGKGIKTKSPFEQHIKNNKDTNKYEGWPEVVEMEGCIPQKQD
UniProt Q9BSJ8: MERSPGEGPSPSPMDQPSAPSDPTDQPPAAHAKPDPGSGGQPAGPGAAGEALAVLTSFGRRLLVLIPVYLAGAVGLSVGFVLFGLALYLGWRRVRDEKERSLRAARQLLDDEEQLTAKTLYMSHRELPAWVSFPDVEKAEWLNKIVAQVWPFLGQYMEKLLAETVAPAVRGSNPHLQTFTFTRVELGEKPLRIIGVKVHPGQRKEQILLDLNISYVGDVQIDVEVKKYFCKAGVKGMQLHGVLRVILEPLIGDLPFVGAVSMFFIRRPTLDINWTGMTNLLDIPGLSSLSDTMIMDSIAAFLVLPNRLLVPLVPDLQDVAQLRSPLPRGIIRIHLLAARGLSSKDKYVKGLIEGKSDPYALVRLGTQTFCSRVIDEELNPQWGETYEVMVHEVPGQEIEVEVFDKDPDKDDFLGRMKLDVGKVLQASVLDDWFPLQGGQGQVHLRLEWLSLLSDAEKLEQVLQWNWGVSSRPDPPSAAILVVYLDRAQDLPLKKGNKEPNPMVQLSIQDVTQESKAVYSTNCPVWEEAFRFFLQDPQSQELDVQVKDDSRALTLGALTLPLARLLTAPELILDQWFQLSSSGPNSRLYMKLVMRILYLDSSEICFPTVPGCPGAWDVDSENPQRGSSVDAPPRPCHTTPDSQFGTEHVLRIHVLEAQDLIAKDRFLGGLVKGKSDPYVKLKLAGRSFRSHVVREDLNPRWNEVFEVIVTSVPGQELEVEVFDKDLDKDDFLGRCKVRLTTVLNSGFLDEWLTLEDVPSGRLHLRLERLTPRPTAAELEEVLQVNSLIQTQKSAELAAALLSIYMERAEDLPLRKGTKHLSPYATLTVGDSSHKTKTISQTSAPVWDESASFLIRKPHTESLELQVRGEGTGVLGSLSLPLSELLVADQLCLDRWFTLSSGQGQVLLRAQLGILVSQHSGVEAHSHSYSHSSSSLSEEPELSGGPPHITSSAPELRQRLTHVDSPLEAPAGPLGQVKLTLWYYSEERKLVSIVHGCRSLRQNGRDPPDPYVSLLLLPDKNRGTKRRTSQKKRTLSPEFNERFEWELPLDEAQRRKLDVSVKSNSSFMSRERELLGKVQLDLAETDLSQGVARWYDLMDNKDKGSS
UniProt O00471: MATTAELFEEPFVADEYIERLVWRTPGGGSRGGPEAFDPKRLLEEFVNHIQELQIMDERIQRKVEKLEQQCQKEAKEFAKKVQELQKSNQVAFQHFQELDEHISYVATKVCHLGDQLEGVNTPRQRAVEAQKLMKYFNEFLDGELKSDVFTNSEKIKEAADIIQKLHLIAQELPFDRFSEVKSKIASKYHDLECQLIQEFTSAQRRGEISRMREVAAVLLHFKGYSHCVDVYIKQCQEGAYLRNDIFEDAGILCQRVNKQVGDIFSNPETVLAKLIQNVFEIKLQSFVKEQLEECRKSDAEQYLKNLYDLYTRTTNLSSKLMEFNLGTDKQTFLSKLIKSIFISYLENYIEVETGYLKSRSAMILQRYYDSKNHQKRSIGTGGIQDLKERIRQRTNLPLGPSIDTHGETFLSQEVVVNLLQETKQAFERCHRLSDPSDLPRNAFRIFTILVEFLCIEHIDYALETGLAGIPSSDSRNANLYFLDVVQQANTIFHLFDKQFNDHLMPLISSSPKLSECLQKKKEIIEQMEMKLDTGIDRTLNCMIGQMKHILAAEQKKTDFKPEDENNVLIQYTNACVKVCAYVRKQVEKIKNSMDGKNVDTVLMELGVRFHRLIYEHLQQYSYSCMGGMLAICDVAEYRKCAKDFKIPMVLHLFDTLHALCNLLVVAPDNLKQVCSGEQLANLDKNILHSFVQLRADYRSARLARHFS
UniProt Q9Y3B2, whole entry, looked up: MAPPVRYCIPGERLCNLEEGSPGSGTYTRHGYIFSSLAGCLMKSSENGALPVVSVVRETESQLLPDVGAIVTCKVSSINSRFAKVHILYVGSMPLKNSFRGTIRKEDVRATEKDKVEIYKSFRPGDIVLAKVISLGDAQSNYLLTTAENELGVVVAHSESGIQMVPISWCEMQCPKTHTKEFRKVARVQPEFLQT
UniProt Q01844: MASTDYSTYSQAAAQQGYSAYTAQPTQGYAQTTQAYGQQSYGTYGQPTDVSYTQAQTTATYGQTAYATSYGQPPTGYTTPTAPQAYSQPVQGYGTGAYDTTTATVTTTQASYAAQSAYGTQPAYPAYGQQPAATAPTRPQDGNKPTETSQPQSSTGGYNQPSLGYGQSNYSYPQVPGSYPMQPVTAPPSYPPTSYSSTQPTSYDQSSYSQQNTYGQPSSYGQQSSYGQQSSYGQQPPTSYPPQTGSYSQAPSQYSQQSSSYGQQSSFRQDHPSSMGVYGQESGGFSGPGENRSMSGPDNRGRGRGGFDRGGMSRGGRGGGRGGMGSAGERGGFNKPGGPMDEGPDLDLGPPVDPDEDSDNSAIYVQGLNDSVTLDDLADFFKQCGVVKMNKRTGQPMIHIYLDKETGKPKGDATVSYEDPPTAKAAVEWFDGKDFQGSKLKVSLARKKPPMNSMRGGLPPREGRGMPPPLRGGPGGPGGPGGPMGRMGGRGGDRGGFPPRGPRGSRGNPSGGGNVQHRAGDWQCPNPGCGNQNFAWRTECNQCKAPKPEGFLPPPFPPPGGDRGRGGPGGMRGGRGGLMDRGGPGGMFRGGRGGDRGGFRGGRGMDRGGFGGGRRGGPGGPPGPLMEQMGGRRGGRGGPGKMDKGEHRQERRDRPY
UniProt Q9UPT5: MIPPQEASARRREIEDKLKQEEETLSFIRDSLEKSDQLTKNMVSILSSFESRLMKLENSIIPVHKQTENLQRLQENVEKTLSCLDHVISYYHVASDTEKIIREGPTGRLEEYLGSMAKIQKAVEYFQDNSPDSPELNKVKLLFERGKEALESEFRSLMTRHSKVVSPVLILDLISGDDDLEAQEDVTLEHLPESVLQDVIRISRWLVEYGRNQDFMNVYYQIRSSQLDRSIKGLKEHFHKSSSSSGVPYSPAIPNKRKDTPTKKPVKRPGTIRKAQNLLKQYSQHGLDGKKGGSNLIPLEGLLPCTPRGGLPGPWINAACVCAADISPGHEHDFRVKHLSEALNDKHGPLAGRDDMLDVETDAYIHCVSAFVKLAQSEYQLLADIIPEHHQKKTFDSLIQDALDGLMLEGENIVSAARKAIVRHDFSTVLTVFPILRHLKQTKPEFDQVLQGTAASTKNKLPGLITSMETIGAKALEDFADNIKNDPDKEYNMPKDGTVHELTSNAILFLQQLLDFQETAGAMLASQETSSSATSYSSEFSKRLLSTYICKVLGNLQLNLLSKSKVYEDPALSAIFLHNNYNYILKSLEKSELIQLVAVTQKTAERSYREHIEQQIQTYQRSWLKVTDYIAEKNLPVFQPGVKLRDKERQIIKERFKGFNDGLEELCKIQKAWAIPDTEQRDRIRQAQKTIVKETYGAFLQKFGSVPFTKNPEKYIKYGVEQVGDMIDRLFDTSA
UniProt P16930: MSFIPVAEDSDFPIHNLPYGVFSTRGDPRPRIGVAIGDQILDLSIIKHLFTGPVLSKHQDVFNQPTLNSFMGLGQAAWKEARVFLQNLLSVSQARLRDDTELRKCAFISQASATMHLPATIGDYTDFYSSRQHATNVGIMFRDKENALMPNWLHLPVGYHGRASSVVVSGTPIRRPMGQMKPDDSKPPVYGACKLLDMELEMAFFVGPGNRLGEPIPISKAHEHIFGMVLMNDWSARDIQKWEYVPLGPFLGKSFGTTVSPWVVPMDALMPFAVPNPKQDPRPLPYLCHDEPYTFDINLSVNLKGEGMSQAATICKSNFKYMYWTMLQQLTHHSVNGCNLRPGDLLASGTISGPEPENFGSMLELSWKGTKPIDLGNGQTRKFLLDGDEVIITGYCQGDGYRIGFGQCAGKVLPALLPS

pictilisib = compound: CS(=O)(=O)N1CCN(Cc2cc3nc(-c4cccc5[nH]ncc45)nc(N4CCOCC4)c3s2)CC1 [pictilisib]
In short: as §1

crizotinib = compound: C[C@@H](Oc1cc(-c2cnn(C3CCNCC3)c2)cnc1N)c1c(Cl)ccc(F)c1Cl [crizotinib]
In short: as §1

[1] = compound: C[C@H](C1=CC=C(C=C1)C(=O)NC2=C3C=CNC3=NC=C2)N
In short: as §1

duvelisib = compound: C[C@H](Nc1ncnc2nc[nH]c12)c1cc2cccc(Cl)c2c(=O)n1-c1ccccc1 [duvelisib]
In short: as §1

gandotinib = compound: Cc1cc(Nc2cc(CN3CCOCC3)c3nc(C)c(Cc4ccc(Cl)cc4F)n3n2)n[nH]1 [gandotinib]
In short: as §1

tozasertib = compound: Cc1cc(Nc2cc(N3CCN(C)CC3)nc(Sc3ccc(NC(=O)C4CC4)cc3)n2)n[nH]1 [tozasertib]
In short: as §1

doramapimod = compound: Cc1ccc(-n2nc(C(C)(C)C)cc2NC(=O)Nc2ccc(OCCN3CCOCC3)c3ccccc23)cc1 [doramapimod]
In short: as §1

bafetinib = compound: Cc1ccc(NC(=O)c2ccc(CN3CC[C@H](N(C)C)C3)c(C(F)(F)F)c2)cc1Nc1nccc(-c2cncnc2)n1 [bafetinib]
In short: as §1

[2] = compound: Cc1cccc(CC(=O)N2CCc3c2ccc(-c2cn(C)c4ncnc(N)c24)c3F)n1
In short: as §1

nilotinib = compound: Cc1cn(-c2cc(NC(=O)c3ccc(C)c(Nc4nccc(-c5cccnc5)n4)c3)cc(C(F)(F)F)c2)cn1 [nilotinib]
In short: as §1

[3] = compound: Cc1nc(Nc2n[nH]c3c2CN(C(=O)N[C@H](CN(C)C)c2ccccc2)C3(C)C)c2sccc2n1
In short: as §1

dasatinib = compound: Cc1nc(Nc2ncc(C(=O)Nc3c(C)cccc3Cl)s2)cc(N2CCN(CCO)CC2)n1 [dasatinib]
In short: as §1

[4] = compound: Cc1ncc(-c2ccnc(Nc3ccc(S(C)(=O)=O)cc3)n2)n1C(C)C
In short: as §1

[5] = compound: Cn1cc(-c2ccc3c(c2)CCN3C(=O)Cc2cccc(C(F)(F)F)c2)c2c(N)ncnc21
In short: as §1

quisinostat = compound: Cn1cc(CNCC2CCN(c3ncc(C(=O)NO)cn3)CC2)c2ccccc21 [quisinostat]
In short: as §1

tipifarnib = compound: Cn1cncc1[C@@](N)(c1ccc(Cl)cc1)c1ccc2c(c1)c(-c1cccc(Cl)c1)cc(=O)n2C [tipifarnib]
In short: as §1

[6] = compound: NC(=O)Nc1cc(-c2cccc(F)c2)sc1C(=O)N[C@H]1CCCNC1
In short: as §1

[7] = compound: NC(=O)c1cnc(N[C@@H]2CCCC[C@@H]2N)nc1Nc1cccc(-n2nccn2)c1
In short: as §1

[8] = compound: NC1(c2ccc(-c3nc4ccn5c(=O)[nH]nc5c4cc3-c3ccccc3)cc2)CCC1
In short: as §1

Measured: log2 fold change

FAM53C (UniProt Q9NYF3)
inactive: lapatinib -0.101 | pictilisib 0.056 | crizotinib 0.02 | [1] 0.08 | duvelisib -0.044 | gandotinib 0.075 | tozasertib 0.029 | doramapimod 0.05 | bafetinib -0.101 | [2] 0.052 | nilotinib -0.099 | [3] -0.212 | dasatinib -0.074 | [4] 0.204 | [5] -0.019 | quisinostat -0.09 | tipifarnib -0.13 | [6] -0.009 | [7] -0.169 | [8] -0.043

ESD (UniProt P10768)
inactive: lapatinib 0.056 | pictilisib -0.016 | crizotinib -0.002 | [1] -0.012 | duvelisib -0.007 | gandotinib 0.02 | tozasertib -0.009 | doramapimod -0.014 | bafetinib 0.029 | [2] -0.04 | nilotinib 0.002 | [3] 0.046 | dasatinib -0.011 | [4] 0.033 | [5] 0.01 | quisinostat 0.065 | tipifarnib 0.007 | [6] -0.036 | [7] -0.017 | [8] -0.002

EXTL2 (UniProt Q9UBQ6)
inactive: lapatinib -0.071 | pictilisib -0.282 | crizotinib 0.032 | [1] -0.138 | duvelisib -0.001 | gandotinib 0.106 | tozasertib 0.028 | doramapimod 0.058 | bafetinib -0.02 | [2] -0.006 | nilotinib 0.07 | [3] -0.085 | dasatinib 0.127 | [4] 0.081 | [5] 0.13 | quisinostat -0.146 | tipifarnib 0.017 | [6] 0.035 | [7] -0.068 | [8] 0.003

ETNK1 (UniProt Q9HBU6)
inactive: lapatinib 0.001 | pictilisib -0.008 | crizotinib -0.032 | [1] -0.038 | duvelisib 0.028 | gandotinib -0.003 | tozasertib 0.038 | doramapimod -0.016 | bafetinib -0.035 | [2] 0.068 | nilotinib -0.086 | [3] 0.021 | dasatinib 0.039 | [4] 0.019 | [5] -0.022 | quisinostat -0.028 | tipifarnib 0 | [6] 0.02 | [7] 0.045 | [8] -0.031

EXOSC5 (UniProt Q9NQT4)
inactive: lapatinib -0.032 | pictilisib 0.017 | crizotinib 0.027 | [1] -0.004 | duvelisib 0.005 | gandotinib 0.006 | tozasertib 0.01 | doramapimod -0.01 | bafetinib -0.009 | [2] 0.02 | nilotinib 0.019 | [3] -0.023 | dasatinib -0.032 | [4] 0.017 | [5] 0.017 | quisinostat 0.042 | tipifarnib -0.002 | [6] -0.021 | [7] 0.002 | [8] 0.003

FAM78A (UniProt Q5JUQ0)
inactive: lapatinib 0.099 | pictilisib 0.092 | crizotinib -0.093 | [1] -0.051 | duvelisib 0.082 | gandotinib 0.013 | tozasertib -0.05 | doramapimod -0.034 | bafetinib -0.029 | [2] 0.03 | nilotinib 0.034 | [3] -0.037 | dasatinib 0.243 | [4] 0.031 | [5] -0.1 | quisinostat -0.005 | tipifarnib 0.023 | [6] 0.027 | [7] -0.042 | [8] 0.007

EXOC3 (UniProt O60645)
inactive: lapatinib -0.037 | pictilisib -0.033 | crizotinib -0.133 | [1] 0.016 | duvelisib -0.039 | gandotinib -0.098 | tozasertib 0.019 | doramapimod 0.041 | bafetinib -0.094 | [2] 0.019 | nilotinib -0.013 | [3] 0.012 | dasatinib -0.06 | [4] 0.039 | [5] 0.021 | quisinostat -0.115 | tipifarnib -0.018 | [6] 0.063 | [7] 0.005 | [8] -0.005

FAM3C (UniProt Q92520)
inactive: lapatinib 0.025 | pictilisib -0.01 | crizotinib -0.052 | [1] 0.012 | duvelisib -0.026 | gandotinib 0.025 | tozasertib -0.047 | doramapimod -0.066 | bafetinib 0.014 | [2] 0.017 | nilotinib 0.034 | [3] -0.023 | dasatinib -0.055 | [4] -0.02 | [5] -0.03 | quisinostat 0.039 | tipifarnib -0.087 | [6] -0.044 | [7] 0.011 | [8] -0.024

F5 (UniProt P12259)
inactive: lapatinib -0.059 | pictilisib -0.063 | crizotinib -0.023 | [1] -0.061 | duvelisib 0.033 | gandotinib 0.057 | tozasertib -0.077 | doramapimod -0.016 | bafetinib -0.004 | [2] 0.045 | nilotinib 0.099 | [3] -0.097 | dasatinib -0.003 | [4] -0.091 | [5] -0.01 | quisinostat 0.008 | tipifarnib -0.175 | [6] 0.022 | [7] 0.041 | [8] 0.024

ESYT1 isoform 2 (UniProt Q9BSJ8)
inactive: lapatinib -0.002 | pictilisib -0.019 | crizotinib 0.023 | [1] -0.042 | duvelisib -0.023 | gandotinib 0.004 | tozasertib 0.016 | doramapimod 0.009 | bafetinib -0.017 | [2] 0.037 | nilotinib 0.005 | [3] -0.024 | dasatinib 0.018 | [4] -0.035 | [5] 0.04 | quisinostat 0.079 | tipifarnib 0.031 | [6] -0.046 | [7] 0 | [8] 0.023

EXOC5 (UniProt O00471)
inactive: lapatinib -0.012 | pictilisib 0.017 | crizotinib -0.067 | [1] 0.055 | duvelisib -0.027 | gandotinib -0.202 | tozasertib 0.025 | doramapimod 0.027 | bafetinib -0.033 | [2] 0.003 | nilotinib 0.008 | [3] -0.025 | dasatinib -0.063 | [4] -0.003 | [5] 0.047 | quisinostat -0.044 | tipifarnib 0.006 | [6] 0.014 | [7] 0.01 | [8] 0.002

FAM83D (UniProt Q9H4H8)
inactive: lapatinib -0.01 | pictilisib -0.024 | crizotinib -0.026 | [1] -0.021 | duvelisib -0.002 | gandotinib -0.018 | tozasertib -0.038 | doramapimod 0.009 | bafetinib -0.116 | [2] 0.031 | nilotinib -0.042 | [3] 0.004 | dasatinib -0.026 | [4] 0.008 | [5] -0.033 | quisinostat -0.061 | tipifarnib -0.02 | [6] -0.019 | [7] 0.05 | [8] 0.01

Retrieved one by one from the list above (2):
ESYT1 isoform 2 (UniProt Q9BSJ8)
inactive: lapatinib -0.002 | pictilisib -0.019 | crizotinib 0.023 | [1] -0.042 | duvelisib -0.023 | gandotinib 0.004 | tozasertib 0.016 | doramapimod 0.009 | bafetinib -0.017 | [2] 0.037 | nilotinib 0.005 | [3] -0.024 | dasatinib 0.018 | [4] -0.035 | [5] 0.04 | quisinostat 0.079 | tipifarnib 0.031 | [6] -0.046 | [7] 0 | [8] 0.023

FAM3C (UniProt Q92520)
inactive: lapatinib 0.025 | pictilisib -0.01 | crizotinib -0.052 | [1] 0.012 | duvelisib -0.026 | gandotinib 0.025 | tozasertib -0.047 | doramapimod -0.066 | bafetinib 0.014 | [2] 0.017 | nilotinib 0.034 | [3] -0.023 | dasatinib -0.055 | [4] -0.02 | [5] -0.03 | quisinostat 0.039 | tipifarnib -0.087 | [6] -0.044 | [7] 0.011 | [8] -0.024

Next part.

EXOSC1 (UniProt Q9Y3B2)
inactive: lapatinib 0.019 | pictilisib -0.023 | crizotinib -0.015 | [1] 0.165 | duvelisib -0.064 | gandotinib -0.028 | tozasertib -0.019 | doramapimod -0.054 | bafetinib -0.032 | [2] -0.011 | nilotinib 0.175 | [3] 0 | dasatinib -0.002 | [4] 0.01 | [5] -0.016 | quisinostat 0.02 | tipifarnib 0.235 | [6] 0.017 | [7] -0.001 | [8] 0.026

EWSR1 isoform 5 (UniProt Q01844)
active: nilotinib -0.766
inactive: lapatinib -0.008 | pictilisib 0.021 | crizotinib 0.048 | [1] -0.07 | duvelisib -0.047 | gandotinib 0.061 | tozasertib -0.016 | doramapimod -0.025 | bafetinib 0.031 | [2] 0.009 | [3] 0.019 | dasatinib 0.004 | [4] 0.036 | [5] -0.049 | quisinostat -0.025 | tipifarnib 0.082 | [6] 0.013 | [7] -0.002 | [8] 0.024

EXOC7 (UniProt Q9UPT5)
inactive: lapatinib -0.029 | pictilisib 0.005 | crizotinib -0.076 | [1] -0.079 | duvelisib 0 | gandotinib -0.067 | tozasertib 0.015 | doramapimod 0.004 | bafetinib -0.03 | [2] 0.09 | nilotinib -0.004 | [3] 0.014 | dasatinib -0.083 | [4] 0.012 | [5] 0.001 | quisinostat -0.021 | tipifarnib -0.036 | [6] 0.012 | [7] 0.007 | [8] -0.037

FAH (UniProt P16930)
inactive: lapatinib -0.009 | pictilisib -0.025 | crizotinib 0.021 | [1] -0.14 | duvelisib -0.011 | gandotinib 0.136 | tozasertib -0.031 | doramapimod -0.034 | bafetinib 0.165 | [2] 0.089 | nilotinib 0.054 | [3] -0.011 | dasatinib 0.009 | [4] 0.007 | [5] 0.003 | quisinostat 0.02 | tipifarnib -0.004 | [6] -0.034 | [7] -0.037 | [8] -0.017

— the supplement of paper PMC10849652
